# Substitutions are numbered along the chain they refer to. Construct, isoform or probe ends are uncertain for at least one entry. For some of these results: The comparison behind a weaker result is the experiment's own reference, which may not be listed here. Where a protein sequence is shown, tags need not be part of it.
# Tests used:
# Test in all cases: enzyme reaction in vitro
# [1] = test system: T1, BsmI R367D (Bacillus stearothermophilus NUB36); details: low nicking activity; protein in an extract; only the site is given
# T1 sequence: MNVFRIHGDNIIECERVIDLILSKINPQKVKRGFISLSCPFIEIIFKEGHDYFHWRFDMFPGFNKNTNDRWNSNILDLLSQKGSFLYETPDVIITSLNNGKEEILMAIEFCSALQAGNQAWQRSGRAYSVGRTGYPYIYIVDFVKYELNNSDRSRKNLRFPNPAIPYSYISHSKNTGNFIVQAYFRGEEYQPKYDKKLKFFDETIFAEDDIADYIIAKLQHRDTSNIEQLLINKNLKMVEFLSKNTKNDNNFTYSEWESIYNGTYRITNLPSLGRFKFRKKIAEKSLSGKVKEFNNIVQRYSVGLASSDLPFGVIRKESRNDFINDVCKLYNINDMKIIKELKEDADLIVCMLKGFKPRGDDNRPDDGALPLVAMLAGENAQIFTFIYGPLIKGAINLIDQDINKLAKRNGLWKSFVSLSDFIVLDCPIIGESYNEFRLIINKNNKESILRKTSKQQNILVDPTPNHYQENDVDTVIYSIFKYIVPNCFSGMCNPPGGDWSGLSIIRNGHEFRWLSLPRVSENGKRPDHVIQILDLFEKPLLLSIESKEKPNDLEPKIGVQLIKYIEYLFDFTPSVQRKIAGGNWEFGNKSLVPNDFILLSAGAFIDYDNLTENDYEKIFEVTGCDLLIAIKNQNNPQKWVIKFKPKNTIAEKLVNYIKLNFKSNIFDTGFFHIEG
# [2] = test system: T2, BsmI R409D (Bacillus stearothermophilus NUB36); details: ds-DNA cleavage; protein in an extract; only the site is given
# T2 sequence: T1 sequence with D367R, R409D
# [3] = test system: T3, BsmI R526D (Bacillus stearothermophilus NUB36); details: intermediate nicking activity; protein in an extract; only the site is given
# T3 sequence: T1 sequence with D367R, R526D
# [4] = test system: T4, BsmI R222D (Bacillus stearothermophilus NUB36); details: ds-DNA cleavage; protein in an extract; only the site is given
# T4 sequence: T1 sequence with R222D, D367R
sequence,measurement,setting,value
GCATTC [pBR322 supercoiled plasmid (one BsmI site)],activity on this sequence,[1],less active
same,activity on this sequence,[2],active
same,activity on this sequence,[3],less active
same,activity on this sequence,[4],active

# — patent publication US20080213860
